According to the supplement of paper PMC6078165:
Values are relative to the signal before dosing, not to a vehicle control; the signal also falls without drug.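 Fibroblast labels denote human fibroblasts, mainly primary ones from uterus (C12385, HUF), lung (H6013), bone (Hs27A), adrenal (HADF) and skin (WS1), plus mammary HMF and breast cancer-associated Hs343T. Cancer cells are basal-like or mesenchymal-like triple-negative breast cancer lines. A hit is a response shift exceeding 3x replicate standard deviation. The tissue of the other fibroblasts is not given here.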

System: HCC1143
Test: relative JC-1 red fluorescence (viability) vs pre-drug, coculture with fibroblast (fraction); higher = more viable cancer cells
Conditions: 10 µM
Method: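 JC-1 labelled TNBC cells cocultured 1:1 (1,500 cells each) with CellTrace Violet stained primary or stromal fibroblasts in 384-well plates in FluoroBrite medium, treated with one of 42 anticancer drugs at 0.1, 1, 10 or 100 uM. JC-1 red fluorescence (mitochondrial integrity in cancer cells only) was read by plate reader every 8 h for 72 h. Values are normalised to each well's pre-drug value. The stock of one drug was tenfold lower, so its dose labels may be too high.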

CN(C)CCOc1ccc(/C(=C(/CCCl)c2ccccc2)c2ccccc2)cc1 [Toremifene]
relative JC-1 red fluorescence
Conditions	8 h	16 h	24 h	32 h	40 h	48 h	56 h	64 h	72 h
coculture fibroblast: C12385	0.8871	0.8421	0.7998	0.7411	0.699	0.64	0.6066	0.5605	0.529
coculture fibroblast: H6013	0.783	0.755	0.739	0.758	0.687	0.659	0.644	0.63	0.723
coculture fibroblast: H6019	0.8745	0.8519	0.811	0.765	0.735	0.708	0.677	0.635	0.606
coculture fibroblast: H6076	0.816	0.9551	0.9303	0.7932	0.841	0.804	0.766	0.725	0.704
coculture fibroblast: H6231	0.812	0.944	0.891	0.598	0.803	0.751	0.73	0.691	0.647
coculture fibroblast: HADF	0.75	0.718	0.701	0.743	0.6368	0.598	0.584	0.569	0.69
coculture fibroblast: HCFa	0.834	0.835	0.847	0.897	0.808	0.787	0.748	0.716	0.779
coculture fibroblast: HCPF	0.817	0.839	0.955	0.686	0.884	0.838	0.812	0.783	0.746
coculture fibroblast: HHSteC	0.809	0.78	0.76	0.762	0.679	0.651	0.625	0.599	0.618
coculture fibroblast: HMF	0.814	0.9918	0.917	0.709	0.825	0.772	0.727	0.682	0.614
coculture fibroblast: HPFa	0.918	0.869	0.828	0.745	0.717	0.684	0.648	0.618	0.589
coculture fibroblast: HUF	0.9195	0.891	0.883	0.833	0.788	0.744	0.704	0.666	0.629
coculture fibroblast: Hs5	0.868	0.774	0.897	0.901	0.871	0.892	0.819	0.861	0.802
coculture fibroblast: Hs27A	0.758	0.707	0.685	0.742	0.582	0.523	0.511	0.484	0.616
coculture fibroblast: Hs343T	0.836	0.89	0.914	0.785	0.883	0.83	0.777	0.75	0.702
coculture fibroblast: WS1	0.903	0.892	0.897	0.859	0.839	0.808	0.777	0.765	0.745
